Assay results taken from US8710184B2, “Motilin-like peptide compound having transmucosal absorbability imparted thereto” (Daiichi Sankyo Company, Limited, priority 2009, dated 2014).
Not every detail of the peptide structures is certain; ends, links or a residue may be inferred. Some of these results come from one statement about several compounds together. Some ranges recur; such a range may be that of the whole group of compounds. Starred links: 1 amine or outer side, 2 acyl side, 3 side chain; linkers in the order of their positions; H or OH if unused. Non-standard residues stand in square brackets, D forms with d. Residues, ends and D or L forms follow the SMILES beside them. No end group written: not given here. X1 = CC(C)[C@@H](C(=O)[*:2])N(C[C@@H](N)Cc1ccccc1)[*:1]; β3hPhg = O=C(C[C@@H](N[*:1])c1ccccc1)[*:2]; Sar = CNCC(=O)O

Legend:
[1] = system: conscious dog's gastrointestinal tract; experiment: Fasting IMC inducing activity in conscious dogs (force transducers); type: in vivo; settings: for IMC Inducing activity: fasting period, intravenous, 0.1 μg/kg
From the text: More specifically, dogs under anesthesia were subjected to a surgical operation in which force transducers were sutured to the serous membranes of the gastric antrum, duodenum, jejunum and ileum along the ring-shaped muscle and, thereafter, the strain from each transducer was sent to a recorder via an amplifier.

[2] = Pharmacokinetic experiment on pulmonarily administered native motilin and motilin derivative compounds in rats (RIA); type: in vivo, rat; settings: pulmonary administration; for BA: 25 μg/rat, relative to AUC of intravenous native motilin; for profile of plasma concentration compared with native motilin: FIG. 3
Description: As test animals, 7- to 10-wk old male SD rats (purchased from CHARLES RIVER LABORATORIES JAPAN, INC.) that consisted of 3 rats per a group were subjected to the following experiment. Native motilin or motilin derivative compounds were dissolved in an aqueous solution of 0.1 N acetic acid to prepare a solution at a concentration of 1 mg/mL and 25 μL of the solution was administered into the polyethylene tube through the trachea by means of an intratracheal liquid spraying device (MicroSprayer; product of Penn Century). […] In the measurement, the respective derivatives were used as standard substances to construct calibration curves for determining the plasma levels.
Using these values, bioavailability (BA (%)) was calculated by the following equation: BA(%)=[(AUC/Dose)/(AUC(motilin—iv)/Dose(motilin—iv))]×100 • AUC: AUC (ng·min/mL) after pulmonary administration • Dose: dose (μg/kg) in pulmonary administration • AUC (motilin_iv): AUC (ng·min/mL) after intravenous administration of native motilin • Dose (motilin_iv): dose (μg/kg) in intravenous administration of native motilin.

| Compound | IMC Inducing activity [1] | profile of plasma concentration compared with native motilin [2] | other results |
| --- | --- | --- | --- |
| CC[C@H](C)[C@H](NC(=O)[C@@H]1CCCN1C(=O)[C@@H](NC[C@@H](N)Cc1ccccc1)C(C)C)C(=O)N[C@@H](Cc1ccccc1)C(=O)N[C@H](C(=O)N[C@@H](Cc1ccc(O)cc1)C(=O)NCC(=O)N[C@@H](CCC(=O)O)C(=O)N[C@@H](CC(C)C)C(=O)N[C@@H](CCC(N)=O)C(=O)N[C@@H](CCCNC(=N)N)C(=O)N[C@@H](CCSC)C(=O)N[C@@H](CCC(N)=O)C(=O)N[C@@H](CCC(=O)O)C(=O)N[C@@H](CCCCN)C(=O)N[C@@H](CCC(=O)O)C(=O)N[C@@H](CCCNC(=N)N)C(=O)N[C@@H](CC(N)=O)C(=O)N[C@@H](CCCCN)C(=O)N1CCC[C@H]1C(=O)N[C@@H](CCC(N)=O)C(=O)O)[C@@H](C)O [Compound 6] (H-[X1]PIFTYGELQRMQEKERNKPQ-OH; N-terminus and C-terminus assumed) | Positive | maintained at higher levels for a longer period than that of native motilin | fasting IMC / contraction pattern compared with native motilin ([1]; intravenous 0.1 μg/kg): contractions occurred in the same pattern; BA ([2]; listed as compound 6): 5.3-18.7% |
| CC[C@H](C)[C@H](NC(=O)[C@@H]1CCCN1C(=O)[C@@H](NC(=O)[C@@H](N)Cc1ccccc1)C(C)C)C(=O)N[C@@H](Cc1ccccc1)C(=O)N[C@H](C(=O)N[C@@H](Cc1ccc(O)cc1)C(=O)NCC(=O)N[C@@H](CCC(=O)O)C(=O)N[C@@H](CC(C)C)C(=O)N[C@@H](CCC(N)=O)C(=O)N[C@@H](CCCNC(=N)N)C(=O)N[C@@H](CCSC)C(=O)N[C@@H](CCC(N)=O)C(=O)N[C@@H](CCC(=O)O)C(=O)N[C@@H](CCCCN)C(=O)N[C@@H](CCC(=O)O)C(=O)N[C@@H](CCCNC(=N)N)C(=O)N[C@@H](CC(N)=O)C(=O)N[C@@H](CCCCN)C(=O)N1CCC[C@H]1C(=O)N[C@@H](CCC(N)=O)C(=O)O)[C@@H](C)O [Compound 1] | Positive | maintained at higher levels for a longer period than that of native motilin | BA ([2]; listed as compound 1): 5.3-18.7% |
| Ac-Nal Val Pro Ile Phe Thr Tyr Gly Glu Leu Gln Arg Met Gln Glu Lys Glu Arg Asn Lys Pro Gln [Compound 11] | – | maintained at higher levels for a longer period than that of native motilin | BA [2]: 5.3-18.7% |
| CC[C@H](C)[C@H](NC(=O)[C@@H]1CCCN1C(=O)[C@@H](NC(=O)[C@@H](N)Cc1ccccc1)C(C)C)C(=O)N[C@@H](Cc1ccccc1)C(=O)N[C@H](C(=O)N[C@@H](Cc1ccc(O)cc1)C(=O)NCC(=O)N[C@@H](CCC(=O)O)C(=O)N[C@@H](CC(C)C)C(=O)N[C@@H](CCC(N)=O)C(=O)N[C@@H](CCCNC(=N)N)C(=O)N[C@@H](CCSC)C(=O)N[C@@H](CCC(N)=O)C(=O)N[C@@H](CCC(=O)O)C(=O)N[C@@H](CCCCN)C(=O)N[C@@H](CCC(=O)O)C(=O)N[C@@H](CCCNC(=N)N)C(=O)N1CCC[C@H]1C(=O)N[C@@H](CCCCN)C(=O)N1CCC[C@H]1C(=O)N[C@@H](CCC(N)=O)C(=O)O)[C@@H](C)O [Compound 8] | Positive | maintained at higher levels for a longer period than that of native motilin | BA [2]: 5.3-18.7% |
| CC[C@H](C)[C@H](NC(=O)[C@@H]1CCCN1C(=O)[C@@H](NC[C@@H](N)Cc1ccccc1)C(C)C)C(=O)N[C@@H](Cc1ccccc1)C(=O)N[C@H](C(=O)N[C@@H](Cc1ccc(O)cc1)C(=O)NCC(=O)N[C@@H](CC(=O)O)C(=O)N[C@@H](CC(C)C)C(=O)N[C@@H](CCC(N)=O)C(=O)N[C@@H](CCCNC(=N)N)C(=O)N[C@@H](CC(C)C)C(=O)N[C@@H](CCC(N)=O)C(=O)N[C@@H](CCC(=O)O)C(=O)N[C@@H](CCCCN)C(=O)N[C@@H](CCC(=O)O)C(=O)N[C@@H](CCCNC(=N)N)C(=O)N1CCC[C@H]1C(=O)N[C@@H](CCCCN)C(=O)N1CCC[C@H]1C(=O)N[C@@H](CCC(N)=O)C(=O)O)[C@@H](C)O [Compound 12] (H-[X1]PIFTYGDLQRLQEKERPKPQ-OH; N-terminus and C-terminus assumed) | – | maintained at higher levels for a longer period than that of native motilin | BA ([2]; listed as compound 12): 5.3-18.7% |
| CC[C@H](C)[C@H](NC(=O)CN(C)C(=O)[C@@H](NC(=O)C[C@@H](N)c1ccccc1)C(C)C)C(=O)N[C@@H](Cc1ccccc1)C(=O)N[C@H](C(=O)N[C@@H](Cc1ccc(O)cc1)C(=O)NCC(=O)N[C@@H](CCC(=O)O)C(=O)N[C@@H](CC(C)C)C(=O)N[C@@H](CCC(N)=O)C(=O)N[C@@H](CCCNC(=N)N)C(=O)N[C@@H](CCSC)C(=O)N[C@@H](CCC(N)=O)C(=O)N[C@@H](CCC(=O)O)C(=O)N[C@@H](CCCCN)C(=O)N[C@@H](CCC(=O)O)C(=O)N[C@@H](CCCNC(=N)N)C(=O)N1CCC[C@H]1C(=O)N[C@@H](CCCCN)C(=O)N1CCC[C@H]1C(=O)N[C@@H](CCC(N)=O)C(=O)O)[C@@H](C)O [Compound 10, Phg(C#CH2) Val Sar Ile Phe Thr Tyr Gly Glu Leu Gln Arg Met Gln Glu Lys Glu Arg Pro Lys Pro Gln] (β3hPhg-V[Sar]IFTYGELQRMQEKERPKPQ-OH; N-terminus and C-terminus assumed) | – | maintained at higher levels for a longer period than that of native motilin | BA ([2]; listed as compound 10): 5.3-18.7% |
| CC[C@H](C)[C@H](NC(=O)[C@@H]1CCCN1C(=O)[C@@H](NC[C@@H](N)Cc1ccccc1)C(C)C)C(=O)N[C@@H](Cc1ccccc1)C(=O)N[C@H](C(=O)N[C@@H](Cc1ccc(O)cc1)C(=O)NCC(=O)N[C@@H](CC(=O)O)C(=O)N[C@@H](CC(C)C)C(=O)N[C@@H](CCC(N)=O)C(=O)N[C@@H](CCCNC(=N)N)C(=O)N[C@@H](CCSC)C(=O)N[C@@H](CCC(N)=O)C(=O)N[C@@H](CCC(=O)O)C(=O)N[C@@H](CCCCN)C(=O)N[C@@H](CCC(=O)O)C(=O)N[C@@H](CCCNC(=N)N)C(=O)N1CCC[C@H]1C(=O)N[C@@H](CCCCN)C(=O)N1CCC[C@H]1C(=O)N[C@@H](CCC(N)=O)C(=O)O)[C@@H](C)O [Compound 13] (H-[X1]PIFTYGDLQRMQEKERPKPQ-OH; N-terminus and C-terminus assumed) | – | maintained at higher levels for a longer period than that of native motilin | BA ([2]; listed as compound 13): 5.3-18.7% |
| FVPIFTYGELQRLQEKERNKGQ [Comparative compound 1, reference compound] | Positive | – | – |
| FVPIFTYGDLQRLQEKERPKPQ [Compound 3] | Positive e | maintained at higher levels for a longer period than that of native motilin | BA ([2]; listed as compound 3): 5.3-18.7% |
| CC[C@H](C)[C@H](NC(=O)[C@@H]1CCCN1C(=O)[C@@H](NC[C@@H](N)Cc1ccccc1)C(C)C)C(=O)N[C@@H](Cc1ccccc1)C(=O)N[C@H](C(=O)N[C@@H](Cc1ccc(O)cc1)C(=O)NCC(=O)N[C@@H](CCC(=O)O)C(=O)N[C@@H](CC(C)C)C(=O)N[C@@H](CCC(N)=O)C(=O)N[C@@H](CCCNC(=N)N)C(=O)N[C@@H](CCSC)C(=O)N[C@@H](CCC(N)=O)C(=O)N[C@@H](CCC(=O)O)C(=O)N[C@@H](CCCCN)C(=O)N[C@@H](CCC(=O)O)C(=O)N[C@@H](CCCNC(=N)N)C(=O)N[C@@H](CC(N)=O)C(=O)N[C@@H](CCCCN)C(=O)NCC(=O)N[C@@H](CCC(N)=O)C(=O)O)[C@@H](C)O [Comparative compound 2, reference compound] (H-[X1]PIFTYGELQRMQEKERNKGQ-OH; N-terminus and C-terminus assumed) | Positive | – | – |
